No constants are given. Whether binding was seen depends on the method and setting. Some results given as binding are weak or reduced against the parent protein; the word gives no strength.

Experiment [1] has as its target T1, NF-κB p65 subunit in nuclear extracts of RANKL-treated mouse RAW 264.7 cells (mouse), Q04207.
T1 chain: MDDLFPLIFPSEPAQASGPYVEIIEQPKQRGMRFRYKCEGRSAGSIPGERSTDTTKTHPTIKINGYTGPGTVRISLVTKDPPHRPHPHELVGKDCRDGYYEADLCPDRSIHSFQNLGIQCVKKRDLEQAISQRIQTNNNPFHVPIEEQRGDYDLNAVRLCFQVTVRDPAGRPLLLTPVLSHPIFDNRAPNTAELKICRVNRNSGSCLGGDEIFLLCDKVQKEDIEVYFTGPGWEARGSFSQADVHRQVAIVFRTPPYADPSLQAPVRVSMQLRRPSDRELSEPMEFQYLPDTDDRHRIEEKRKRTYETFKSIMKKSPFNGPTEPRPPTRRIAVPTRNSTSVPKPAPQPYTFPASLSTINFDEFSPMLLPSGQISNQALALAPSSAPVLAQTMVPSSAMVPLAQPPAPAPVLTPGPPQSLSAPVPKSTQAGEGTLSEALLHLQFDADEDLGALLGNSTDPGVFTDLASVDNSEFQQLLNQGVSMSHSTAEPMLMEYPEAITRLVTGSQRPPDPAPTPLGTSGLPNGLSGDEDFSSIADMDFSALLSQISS
The experiment can be described thus: EMSA supershift assay, nuclear extracts of RANKL-treated RAW 264.7 cells. As to conditions: remark: other sources report otherwise.

The target in experiment [2] is T1, NF-κB p65 subunit in nuclear extracts …. The experiment can be described thus: EMSA supershift assay, nuclear extracts of RANKL-treated RAW 264.7 cells (FIG. 18C). As to conditions: remark: other sources report otherwise. (In general: In EMSA bound probe runs differently from free probe, usually more slowly.)

B1: NF-κB p50 subunit in nuclear extracts of RANKL-treated mouse RAW 264.7 cells, P25799 1-431 (protein, UniProt P25799 1-431, looked up)
chain: MADDDPYGTGQMFHLNTALTHSIFNAELYSPEIPLSTDGPYLQILEQPKQRGFRFRYVCEGPSHGGLPGASSEKNKKSYPQVKICNYVGPAKVIVQLVTNGKNIHLHAHSLVGKHCEDGVCTVTAGPKDMVVGFANLGILHVTKKKVFETLEARMTEACIRGYNPGLLVHSDLAYLQAEGGGDRQLTDREKEIIRQAAVQQTKEMDLSVVRLMFTAFLPDSTGSFTRRLEPVVSDAIYDSKAPNASNLKIVRMDRTAGCVTGGEEIYLLCDKVQKDDIQIRFYEEEENGGVWEGFGDFSPTDVHRQFAIVFKTPKYKDVNITKPASVFVQLRRKSDLETSEPKPFLYYPEIKDKEEVQRKRQKLMPNFSDSFGGGSGAGAGGGGMFGSGGGGGSTGSPGPGYGYSNYGFPPYGGITFHPGVTKSNAGVTHG
For the molecule B1, the binding entry in experiment [1] and in experiment [2] was “binds” throughout.
